Record: PubChem BioAssay AID1259424 (University of Nebraska Medical Center, 2018)

Screen: 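Rank knockdowns across the genome by resemblance to the KSR1 depletion profile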 (primary screen)
Cell system: human HCT116 colon cancer cells
Knock-down reagent: siRNA pool against human genes, 50 nM
Measured: 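Log2 levels of six mRNAs (branched-DNA multiplex), adjusted by two reference genes and the non-targeting median, then scored against the average KSR1 knockdown pattern as Pearson r and euclidean distance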
Direction: mean correlation with KSR1 profile: higher = expression change more like KSR1 knockdown
In all, the deposit lists about 14,000 reagents; below is a part drawn at random. 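Higher correlation or smaller distance means closer resemblance to KSR1 loss; control wells, including KSR1 knockdowns, recur on many plates.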 Further read-outs or replicates are left out here. The record does not give: the time to read-out.

Silencing of C19orf33 (chromosome 19 open reading frame 33) gave: mean correlation with KSR1 profile 0.547. For P2RY14 (purinergic receptor P2Y14) the deposit lists mean correlation with KSR1 profile 0.804. TTLL5 (tubulin tyrosine ligase like 5) gave mean correlation with KSR1 profile -0.00684. For BNIP3L (BCL2 interacting protein 3 like), the values are mean correlation with KSR1 profile -0.515. For SMAD4 (SMAD family member 4), the values are mean correlation with KSR1 profile -0.156. Knock-down of MRPS12 (mitochondrial ribosomal protein S12) gave: mean correlation with KSR1 profile -0.352.

Against KMT2C (lysine methyltransferase 2C), the values are mean correlation with KSR1 profile -0.556. CLCN3 (Cl-/H+ antiporter 3) gave mean correlation with KSR1 profile -0.127. OVCA2 (OVCA2 serine hydrolase domain containing) gave mean correlation with KSR1 profile -0.249. After knock-down of SLC22A12, the screen gave mean correlation with KSR1 profile -0.612. After knock-down of LILRB2 (leukocyte immunoglobulin like receptor B2), the screen gave mean correlation with KSR1 profile 0.561.

2 entries from above, arranged by “mean correlation with KSR1 profile”, ascending.
SLC22A12 | mean correlation with KSR1 profile: -0.612
LILRB2 (leukocyte immunoglobulin like receptor B2) | mean correlation with KSR1 profile: 0.561

Additional records follow.
NPHS1 (NPHS1 adhesion molecule, nephrin) gave mean correlation with KSR1 profile 0.737. NHERF2 (NHERF family PDZ scaffold protein 2) gave mean correlation with KSR1 profile 0.519. Against ENPP5 the deposit lists mean correlation with KSR1 profile -0.273. Against CALM1 (calmodulin 1) the deposit lists mean correlation with KSR1 profile 0.339. Against ATL3 (atlastin GTPase 3), the entry reads mean correlation with KSR1 profile -0.67. CCR1 (C-C motif chemokine receptor 1) scored mean correlation with KSR1 profile 0.712.

IGF2-AS (IGF2 antisense RNA) gave mean correlation with KSR1 profile -0.136. For SCGB1D1 (secretoglobin family 1D member 1), the values are mean correlation with KSR1 profile 0.241.
